Primary screen of a compound library

Values are the deposited “Percent Effect”, in %. The controls that fix the scale are not given in the record; negative values are as filed. The compounds are a random part of those screened. Two or more numbers in one place are separate tests of the same structure; such repeats can differ widely.

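Viability assay of Plasmodium falciparum sporozoites; the read-out is not stated. The concentration is filed as 10 mM, unlikely as a test dose, so the dose is not known. The record gives no direction; compounds that gave an IC50 in retests scored well above the rest, so higher reads as lower viability. Strong results were mostly tested again. Size under these conditions: about 34,000 compounds, about 280 of them at 50% or above in at least one test.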

SMILES | percent effect
Cc1cnn(CC2CCCN2C(=O)CN(C)C2CC2)c1 (stereo not shown) | 2.859
CC(c1nc(C2CC2)no1)N1CCN(Cc2noc(C3CC3)n2)CC1 (stereo not shown) | -3.781
CS(=O)(=O)N1CCc2c(cccc2NC(=O)Nc2ccccn2)C1 | -27.7
Cc1nc(C2CCN(C(=O)c3cc(C4CC4)[nH]n3)CC2)no1 | 8.419
CC(c1nc(C2CC2)no1)N1CCN(Cc2cccnc2)CC1 (stereo not shown) | 4.153
CN(Cc1ccc(F)cc1)S(=O)(=O)N1CCOCC1 | 9.691
Cc1nn(C)c(N2CCOCC2)c1CNCc1cscn1 | 12.68
Cc1ccncc1-n1cc(CCO)cn1 | -6.064
Cc1cnn(CCNCc2csc(-c3cccs3)n2)c1 | -7.42
Cc1cc(C)n(CC2CCCCN2C(=O)CCc2ccncc2)n1 (stereo not shown) | 3.674
CCS(=O)(=O)c1ccccc1N1CCC(NC(=O)NC2CCCC2)CC1 | 4.595
Cc1ccc(C(=O)NC(C)CN2CCCC2=O)c(=O)[nH]1 (stereo not shown) | -8.855
CCN(CC(=O)NC)S(=O)(=O)N1CCCCCC1 | -19.38
CC(NC(=O)CSCC#N)c1ccc(Cl)cc1 (stereo not shown) | -3.321
Cc1noc(-c2cccnc2N2CCOC(C)(c3cnn(C)c3)C2)n1 (stereo not shown) | -9.6
Cn1cnnc1C1CCN(C(=O)Cc2ccc3c(c2)OCCO3)CC1 | -9.365
O=C(NS(=O)(=O)Cc1ccc(F)cc1)C1CCOc2ccccc21 (stereo not shown) | -5.506
Cn1c(CN2CCOC(c3nc(C(C)(C)C)n[nH]3)C2)nnc1C1CC1 (stereo not shown) | -14.34
Cc1cccc(-c2nc(C)nn2CC(=O)NCC(C)C)c1 | -9.272
Cc1cc(CN(C)C(=O)NC2CCN(Cc3ccccc3)C2)no1 (stereo not shown) | 15.33
CN(CCn1cccn1)S(=O)(=O)c1ccc(C#N)cc1 | -5.943
Cc1cc(NC(=O)CN2CCc3cncnc3C2)on1 | 5.11
Cn1cc(C[C@H]2[C@H](N3CCOCC3)CCN2C(=O)c2ccoc2)cn1 | -5.122
O=C(O)C(F)(F)F.O=C(c1cccs1)N1CCOCC2(C1)CN(c1cccnc1)C(=O)CO2 (stereo not shown) | 20.24 & 13.01 & 9.235
CCN(C)C(=O)Nc1cc(F)c(OC)cc1F | -12.39
CCc1n[nH]c(C2CN(CCS(C)(=O)=O)CCO2)n1 (stereo not shown) | 8.008
Cc1cnn(CC(C)NCC(=O)NCCOc2ccccc2)c1 (stereo not shown) | -2.065
Cc1cccc(OC2CCN(c3nc(N)nc4[nH]cnc34)CC2)c1 | -3.905
CN(C)C(=O)Cc1ccc(NC(=O)NC2CCCCC2)cc1 | -0.8235
O=C(Cc1cccc(F)c1F)NC1COc2ccccc2C1=O (stereo not shown) | -0.9989
COc1ccc(CN2CCn3cc(Cn4cccn4)nc3C2)cc1.O=C(O)C(F)(F)F | 0.3352
OCC1(Cc2ccccc2F)CCCN(c2ccc3ccccc3n2)C1 (stereo not shown) | -17.45
CCNc1cc2c(nn1)CCN(C(=O)c1ccc(-n3cnnc3)cc1)C2 | 1.357
O=C1CN(C(=O)c2cccc(C(F)(F)F)c2)CC(O)CN1CC1CC1 (stereo not shown) | -23.71
COCCNC(=O)CN1CCC(N2CCN(C)C2=O)CC1 | 3.976
Cc1nn(CC(C)C)c(N(C)C)c1CNCc1cc2ccccc2[nH]1 | 52.48 & 39.12 & 4.163
Cc1nc(-c2ccc(F)c(F)c2)cc(C2CCNCC2)n1.Cl | 0.06458
COCC1CN(S(=O)(=O)c2ccccc2)Cc2ncnn2C1 (stereo not shown) | 0.7666
CCc1nn(C)c(Cl)c1CN1CCC2(C1)CN(C)C(=O)O2 (stereo not shown) | 2.507
Cc1c(C2SCC(=O)Nc3c2c(O)nn3C2CCCC2)cnn1C (stereo not shown) | -13.71
C=Cn1cc(CN2CCc3nc(-c4cccnc4)nc(O)c3C2)c(C)n1 | -10.47
CC(C(=O)NCc1ccc(-n2cncn2)nc1)S(C)(=O)=O (stereo not shown) | 0.6689
[H][C@@]12CN(c3ccc(C)nn3)C[C@]1([H])OCCN2Cc1c(C)noc1C | 11.61
CCc1c(C)nn(CCNC(=O)C2CCCN(C(=O)N(C)C)C2)c1C (stereo not shown) | 11.33
O=C(O)C1(Cc2cccc(-c3ccc(F)cc3)c2)CCOCC1 | 5.103
CCCOc1cccc(-c2nc3c([nH]2)CCNC3)c1 | -14.23
Cc1ccc(NC2CCN(C(=O)COCC3CC3)CC2)nn1 | 8.136
CCN(CC)CC1CCN(Cc2ncc(C(C)(C)C)o2)CC1 | -7.171
Cc1ccn2ncc(C(=O)N3CCCC(n4ccnc4C)C3)c2n1 (stereo not shown) | 2.382
CC(C)N(C)Cc1cnc2n1CCN(S(=O)(=O)c1ccccc1)C2.O=C(O)C(F)(F)F | -14.23
COc1cc2c(cc1CN1CCCCC1CN1CCOCC1)CCC2 (stereo not shown) | -3.176
O=C(O)C(F)(F)F.[H][C@@]12CCN(CCc3ccccc3)C[C@@]1([H])O[C@H](C(=O)N1CCCC1)C2 | 0.346
Cc1nc(NC2(CN3CCCCC3)CCCCC2)c2cnn(C)c2n1 | 0.3581
Fc1cc(CCNc2ccc3nccn3n2)c2c(c1)COCO2 | -17.56
c1ccc(-c2nc(CN3CCOC(Cn4cccn4)C3)cs2)cc1 (stereo not shown) | -13.99 & -29.39
CCOc1ccccc1N(C)C(=O)c1cscn1 | -9.31
COc1ccc(OC)c(-c2nc(CN(C)Cc3nncn3C)c(C)o2)c1 | 0.3542
O=C(O)C(F)(F)F.O=C(O)C(F)(F)F.[H][C@@]12C[C@@H](Oc3cncnc3)CN1CCN(Cc1csc(C)n1)C2 | -5.954
O=C(O)C(F)(F)F.[H][C@@]12CN(C(=O)c3cnccn3)C[C@]1([H])C(=O)N(Cc1cccc(C)n1)C2 | -3.24
Cc1cc(N2CCN(Cc3ccccc3)CC(O)C2)cc(C)n1 (stereo not shown) | -11.41
CC(C)c1nn(C)c(N(C)C)c1CNCc1ccc(N(C)C)nc1 | 14.33
CCc1nc(CN2CCCN(C(=O)c3occc3C)CC2)cs1 | 1.171
CSc1ncc(Cl)c(C(=O)NC(Cc2ccccc2)C(=O)O)n1 (stereo not shown) | 8.9
Cc1ccc(CC(=O)NC(C)C(=O)N2CCS(=O)(=O)CC2)cc1 (stereo not shown) | 8.118
O=c1c2ccccc2nc2n1CCN(Cc1cccs1)CC2 | -7.938
Cc1nc(C)n(CC2CN(CC(=O)Nc3cccnc3)CCO2)n1 (stereo not shown) | -8.511
CC(=O)N1CC2(CCNCC2)c2cc(C)ccc21 | 15.32
O=C(O)C(F)(F)F.[H][C@@]12CCN(Cc3ccoc3)[C@]1([H])CC[C@H](C(=O)NCc1cccs1)O2 | -4.123
COCC(=O)N1CCOC(c2ccc(N(C)C)cn2)C1 (stereo not shown) | -1.133
Cc1nc(N2CCCCC2)ncc1C(=O)N1CC(C)(C)[C@@](C)(O)C1 | 5.075
Cn1cnnc1S(=O)(=O)C1CCN(S(=O)(=O)C2CC2)CC1 | -23.73
CC(=O)N1CCC(CCc2ccnc(Nc3ccccn3)c2)CC1 | 12.66 & -209.6 & -186.9
Cc1nnc(CN(Cc2ccc3c(c2)OCO3)C2CCCCC2)o1 | 13.42 & -14.26 & -5.862
CCOCC(O)CN1CCN(C(=O)c2cc(F)ccc2C)CC1 (stereo not shown) | -4.088
O=C(O)C(F)(F)F.[H][C@@]12CN(Cc3ccc(OC)cc3)C[C@]1([H])C(=O)N(c1ccsc1)C2 | 1.143
CN(Cc1nccn1CC(F)(F)F)C(=O)c1ccc2c(c1)OCO2 | -3.671
CCCC(NC(=O)c1ccc(OC)cc1F)c1nnn[nH]1 (stereo not shown) | -8.155
COCCNc1ncc(-c2cccc(OC)c2)c(-c2nccn2C)n1 | -2.091
Cc1cc(C)n(CCC(=O)N2CCCC(n3cncn3)C2)n1 (stereo not shown) | -18.14
CN(C)CCOCC1CN(Cc2ccsc2)Cc2nnn(C)c21.O=C(O)C(F)(F)F.O=C(O)C(F)(F)F (stereo not shown) | 1.491
c1ccc(-c2cc(CNCCN3CCCC3)c3nnnn3c2)cc1 | 5.712
O=C(NCCNc1ncccn1)Nc1cc(C(F)(F)F)c[nH]c1=O | -5.096
Cc1noc(C)c1-c1cncc(C2CCCN2Cc2cncnc2)n1 (stereo not shown) | -10.5

7 of the entries, repeated:

SMILES	percent effect
CCc1c(C)nn(CCNC(=O)C2CCCN(C(=O)N(C)C)C2)c1C (stereo not shown)	11.33
COc1ccc(OC)c(-c2nc(CN(C)Cc3nncn3C)c(C)o2)c1	0.3542
O=C(O)C(F)(F)F.O=C(c1cccs1)N1CCOCC2(C1)CN(c1cccnc1)C(=O)CO2 (stereo not shown)	20.24 & 13.01 & 9.235
Cc1nc(C)n(CC2CN(CC(=O)Nc3cccnc3)CCO2)n1 (stereo not shown)	-8.511
CC(NC(=O)CSCC#N)c1ccc(Cl)cc1 (stereo not shown)	-3.321
CN(C)CCOCC1CN(Cc2ccsc2)Cc2nnn(C)c21.O=C(O)C(F)(F)F.O=C(O)C(F)(F)F (stereo not shown)	1.491
O=C(NCCNc1ncccn1)Nc1cc(C(F)(F)F)c[nH]c1=O	-5.096

Data taken from ChEMBL document CHEMBL3988442, “University of Dundee, Small-Polar-MMV Screening Library” (2021).